At least one compound was matched to its structure with a doubt left.
Legend:
RIP = test: Western blot of RIP protein expression in cells treated with GA; assay type: cell-based; settings: 4E3 cells treated with GA; inset of FIG. 2A
[1] = system: TNFR-2-expressing wild-type (4E3) Jurkat cells; settings: wild-type 4E3 cells, 16 hours

SMILES: COC1=C2C[C@@H](C)C[C@H](OC)[C@H](O)[C@@H](C)/C=C(\C)[C@H](OC(N)=O)[C@@H](OC)/C=C\C=C(/C)C(=O)NC(=CC1=O)C2=O [geldanamycin]
- RIP protein level (RIP): reduction
- TNF-induced death (cell loss), zVAD-fmk plus GA together ([1]; 10 ng/ml rhTNFα with zVAD-fmk plus GA): synergized to completely suppress
- TNF-induced death (cell loss), single agent ([1]; 10 ng/ml rhTNFα, or 0.5 mM GA): modestly decreased

Reference: patent US20080019909A1, “Modulation of Programmed Necrosis” (priority 2003, published 2008)
